Data source: PubChem BioAssay AID504774 (Drosophila RNAi Screening Center, 2011)
In all, the deposit lists about 23,000 reagents; below is an unselected part of those with a known target gene and a result. 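Values are quantile-normalised luminescence on an arbitrary scale; higher means more cells surviving MMS.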 Reagents against one gene are numbered here. Names joined by + are all predicted targets of the reagent.

Purpose: 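Knock-downs that shift viability of MMS-exposed cells relative to untreated ones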 (primary screen)
System: Drosophila Kc167 cells
Reagent: long dsRNA against Drosophila genes, about 0.25 µg dsRNA per well
Timing: about 6 days: 3 days knock-down, then 3 days with or without MMS
Challenge: methyl methanesulphonate 0.004% (w/v) for 3 days after knock-down
Measurement: 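ATP-dependent luminescence as a measure of live cells in MMS-exposed wells, quantile normalised within each plate, with replicate values also given as a mean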
Reading the numbers: mean viability with MMS and viability with MMS: higher = more surviving cells after MMS

no.	gene knocked down	dsRNA no.	mean viability with MMS	viability with MMS, replicate 1	viability with MMS, replicate 2
1	Rich (RIC1 homolog)	1	3.60e6	4.13e6	4.04e6
2	lncRNA:CR32385 (long non-coding RNA:CR32385)	1	3.52e6	3.99e6	4.00e6
3	CG15717	1	3.68e6	4.19e6	4.11e6
4	Bro	1	3.58e6	4.07e6	4.03e6
5	Arp5 (Actin-related protein 5)	1	3.79e6	4.26e6	4.24e6
6	CG5114	1	3.56e6	4.00e6	4.05e6
7	CG9021	1	3.60e6	3.97e6	4.21e6
8	sncRNA:430e + His2A:CG33859 + His2A:CG33817 + 37 more	1	3.29e6	3.77e6	3.77e6
9	Proc-R (Proctolin receptor)	1	3.66e6	4.18e6	4.11e6
10	CG13086	1	3.42e6	3.89e6	3.81e6
11	CG32117	1	3.58e6	4.12e6	4.00e6
12	Rrp6	1	3.19e6	3.61e6	3.71e6
13	CG4629	1	3.66e6	4.07e6	4.26e6
14	Sf3b2 (Splicing factor 3b subunit 2)	1	2.54e6	2.79e6	3.02e6
15	Larp4B (La-related protein 4B)	1	3.19e6	3.62e6	3.64e6
16	Larp4B (La-related protein 4B)	2	3.62e6	4.11e6	4.12e6
17	CG14052	1	3.31e6	3.72e6	3.83e6
18	CG14052	2	3.54e6	3.81e6	4.22e6
19	CG33298	1	3.53e6	3.85e6	4.17e6
20	CG33298	2	3.65e6	4.36e6	3.96e6
21	twz (tiwaz)	1	3.52e6	4.00e6	3.98e6
22	Syb (Synaptobrevin)	1	3.52e6	3.95e6	4.01e6
23	CG7744	1	3.47e6	3.93e6	3.93e6
24	cmet (CENP-meta)	1	3.53e6	3.94e6	4.07e6
25	Mp20 (Muscle protein 20)	1	3.54e6	3.97e6	4.02e6
26	Uba3 (Ubiquitin-like activating enzyme 3)	1	3.65e6	4.10e6	4.20e6
27	Rpp25 (Ribonuclease P/MRP subunit p25)	1	3.37e6	3.80e6	3.78e6
28	Sos (Son of sevenless)	1	3.20e6	3.71e6	3.62e6
29	if (inflated)	1	3.44e6	3.91e6	3.85e6
30	Cby (Chibby)	1	3.43e6	3.79e6	4.01e6
31	TwdlS (TweedleS)	1	3.44e6	3.95e6	3.81e6
32	RpL36 (Ribosomal protein L36)	1	2.97e6	3.66e6	3.66e6
33	veli	1	3.49e6	3.93e6	3.95e6
34	bgcn (benign gonial cell neoplasm)	1	3.51e6	3.95e6	3.99e6
35	bgcn (benign gonial cell neoplasm)	2	3.60e6	4.15e6	4.02e6
36	NELF-B	1	3.38e6	4.05e6	3.81e6
37	CG32523	1	3.57e6	4.05e6	4.04e6
38	tub (tube)	1	3.62e6	4.04e6	4.16e6
39	tub (tube)	2	3.36e6	3.87e6	3.88e6
40	Phb1 (Prohibitin 1)	1	3.49e6	3.85e6	4.06e6
41	Lgr3 (Leucine-rich repeat-containing G protein-coupled receptor 3)	1	3.47e6	3.96e6	3.87e6
42	Lgr3 (Leucine-rich repeat-containing G protein-coupled receptor 3)	2	3.25e6	3.74e6	3.63e6
43	pho (pleiohomeotic)	1	3.59e6	4.05e6	4.10e6
44	CG15741	1	3.38e6	3.85e6	3.85e6
45	Helz (Helicase with zinc finger)	1	3.52e6	4.01e6	3.97e6

Reformatted: entries from further up.
{"gene knocked down":"CG13086","dsRNA no.":1,"mean viability with MMS":3.42e6,"viability with MMS, replicate 1":3.89e6,"viability with MMS, replicate 2":3.81e6}
{"gene knocked down":"CG32117","dsRNA no.":1,"mean viability with MMS":3.58e6,"viability with MMS, replicate 1":4.12e6,"viability with MMS, replicate 2":4.00e6}
{"gene knocked down":"Rrp6","dsRNA no.":1,"mean viability with MMS":3.19e6,"viability with MMS, replicate 1":3.61e6,"viability with MMS, replicate 2":3.71e6}
{"gene knocked down":"CG4629","dsRNA no.":1,"mean viability with MMS":3.66e6,"viability with MMS, replicate 1":4.07e6,"viability with MMS, replicate 2":4.26e6}
{"gene knocked down":"Sf3b2 (Splicing factor 3b subunit 2)","dsRNA no.":1,"mean viability with MMS":2.54e6,"viability with MMS, replicate 1":2.79e6,"viability with MMS, replicate 2":3.02e6}
{"gene knocked down":"Larp4B (La-related protein 4B)","dsRNA no.":1,"mean viability with MMS":3.19e6,"viability with MMS, replicate 1":3.62e6,"viability with MMS, replicate 2":3.64e6}
{"gene knocked down":"Larp4B (La-related protein 4B)","dsRNA no.":2,"mean viability with MMS":3.62e6,"viability with MMS, replicate 1":4.11e6,"viability with MMS, replicate 2":4.12e6}
{"gene knocked down":"CG14052","dsRNA no.":1,"mean viability with MMS":3.31e6,"viability with MMS, replicate 1":3.72e6,"viability with MMS, replicate 2":3.83e6}
{"gene knocked down":"CG14052","dsRNA no.":2,"mean viability with MMS":3.54e6,"viability with MMS, replicate 1":3.81e6,"viability with MMS, replicate 2":4.22e6}
{"gene knocked down":"CG33298","dsRNA no.":1,"mean viability with MMS":3.53e6,"viability with MMS, replicate 1":3.85e6,"viability with MMS, replicate 2":4.17e6}

Further results follow:
no.	gene knocked down	dsRNA no.	mean viability with MMS	viability with MMS, replicate 1	viability with MMS, replicate 2
46	CG32295	1	3.47e6	3.98e6	3.94e6
47	rswl (roswell)	1	3.50e6	3.98e6	3.94e6
48	CG43078	1	3.74e6	4.46e6	4.00e6
49	CG43078	2	3.65e6	4.19e6	4.08e6
50	CG43078	3	3.49e6	4.02e6	3.94e6
51	CG43078	4	3.61e6	4.07e6	4.07e6
52	Pld3 (Phospholipase D family member 3)	1	3.58e6	4.10e6	3.99e6
53	CG10340	1	3.64e6	4.13e6	4.09e6
54	CG12391	1	3.52e6	4.08e6	3.88e6
55	l(3)neo43 (lethal (3) neo43)	1	3.52e6	3.73e6	4.25e6
56	Rsph3 (Radial spoke head protein 3)	1	3.51e6	3.99e6	3.97e6
57	Rsph3 (Radial spoke head protein 3)	2	3.60e6	4.04e6	4.14e6
58	Gas8 (Growth arrest specific protein 8)	1	3.45e6	3.93e6	3.94e6
59	CG30486	1	3.50e6	3.98e6	3.94e6
60	Miga (Mitoguardin)	1	3.59e6	3.96e6	4.19e6
61	Polr3C (RNA polymerase III subunit C)	1	3.41e6	3.70e6	3.99e6
62	Dlc90F (Dynein light chain 90F)	1	3.51e6	4.06e6	3.92e6
63	CG11414	1	3.60e6	3.92e6	3.90e6
64	THG (tRNA-histidine guanylyltransferase)	1	3.79e6	4.24e6	4.19e6
65	CG31788	1	3.42e6	3.84e6	3.89e6
66	Idh (Isocitrate dehydrogenase)	1	3.56e6	3.95e6	4.12e6
67	Rnmt (RNA guanine-7 methyltransferase)	1	3.53e6	3.93e6	4.08e6
68	LManIV (Lysosomal alpha-mannosidase IV)	1	3.55e6	3.95e6	4.11e6
